Data source: PubChem BioAssay AID652243 (Drosophila RNAi Screening Center, 2013)
The screen tested about 24,000 reagents; below is a random part of those with a known target gene and a result. Of all reagents, 246 (1%) got an active call. 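Plates not normalised; calls are printed but the firefly/Renilla ratio behind them is not deposited; fold cut for lowering reported inconsistently.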 Raw values vary from plate to plate and are shown uncorrected. The numbers tell different reagents against one gene apart. The record does not give: the amount of reagent.

Assay: 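Knock-downs that decrease or increase androgen receptor reporter signal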 (primary screen)
Cells: Drosophila S2R+ cells
Reagents: long dsRNA against Drosophila genes
Duration: 72 h (48 h, then 24 h hormone)
Challenge: synthetic androgen R1881 at 10 nM for 24 h
Detection: 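Firefly light from an androgen-responsive reporter and Renilla control light per well, raw and unnormalised, for each of two replicates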
Scale: firefly reporter light: higher = more light from androgen-responsive reporter; Renilla control light: higher = more constitutive control signal (cell number, transfection)
Active means: 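Across duplicate plates, a knock-down whose log firefly/Renilla ratio shifted a set fold down or up from the GFP/LacZ control mean was a hit; the downward cut appears as both 1.5 and 3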
Meaning of the calls: active = hit: reporter lowered or raised; inactive = no hit

{"gene": "Scsalpha1 (Succinyl-coenzyme A synthetase alpha subunit 1)", "reagent no.": 1, "firefly reporter light, replicate 1": 1.03e6, "firefly reporter light, replicate 2": 7.02e5, "Renilla control light, replicate 1": 1.62e6, "Renilla control light, replicate 2": 1.50e6, "Call": "inactive"}
{"gene": "Scsalpha1 (Succinyl-coenzyme A synthetase alpha subunit 1)", "reagent no.": 2, "firefly reporter light, replicate 1": 3.42e5, "firefly reporter light, replicate 2": 3.99e5, "Renilla control light, replicate 1": 4.16e5, "Renilla control light, replicate 2": 6.20e5, "Call": "inactive"}
{"gene": "Gpdh3 (Glycerol-3-phosphate dehydrogenase 3)", "reagent no.": 1, "firefly reporter light, replicate 1": 2.92e5, "firefly reporter light, replicate 2": 3.38e5, "Renilla control light, replicate 1": 3.67e6, "Renilla control light, replicate 2": 4.02e6, "Call": "inactive"}
{"gene": "ND-75 (NADH dehydrogenase (ubiquinone) 75 kDa subunit)", "reagent no.": 1, "firefly reporter light, replicate 1": 4.05e5, "firefly reporter light, replicate 2": 2.91e5, "Renilla control light, replicate 1": 2.71e6, "Renilla control light, replicate 2": 3.02e6, "Call": "inactive"}
{"gene": "Prp4k (Pre-mRNA processing factor 4 kinase)", "reagent no.": 1, "firefly reporter light, replicate 1": 6.47e5, "firefly reporter light, replicate 2": 8.52e5, "Renilla control light, replicate 1": 1.53e6, "Renilla control light, replicate 2": 1.69e6, "Call": "active"}
{"gene": "Prp4k (Pre-mRNA processing factor 4 kinase)", "reagent no.": 2, "firefly reporter light, replicate 1": 1.96e5, "firefly reporter light, replicate 2": 2.05e5, "Renilla control light, replicate 1": 4.64e5, "Renilla control light, replicate 2": 8.75e5, "Call": "inactive"}
{"gene": "Prp4k (Pre-mRNA processing factor 4 kinase)", "reagent no.": 3, "Call": "inactive"}
{"gene": "Chrac-16 (Chromatin accessibility complex 16kD protein)", "reagent no.": 1, "firefly reporter light, replicate 1": 2.32e5, "firefly reporter light, replicate 2": 2.19e5, "Renilla control light, replicate 1": 1.74e6, "Renilla control light, replicate 2": 2.06e6, "Call": "inactive"}
{"gene": "Chrac-16 (Chromatin accessibility complex 16kD protein)", "reagent no.": 2, "firefly reporter light, replicate 1": 1.09e6, "firefly reporter light, replicate 2": 4.84e5, "Renilla control light, replicate 1": 6.64e5, "Renilla control light, replicate 2": 4.73e5, "Call": "inactive"}
{"gene": "lncRNA:mimi (mimi)", "reagent no.": 1, "firefly reporter light, replicate 1": 8.24e5, "firefly reporter light, replicate 2": 8.68e5, "Renilla control light, replicate 1": 1.95e6, "Renilla control light, replicate 2": 1.83e6, "Call": "inactive"}
{"gene": "Ir7f (Ionotropic receptor 7f)", "reagent no.": 1, "firefly reporter light, replicate 1": 2.36e5, "firefly reporter light, replicate 2": 3.73e5, "Renilla control light, replicate 1": 2.45e6, "Renilla control light, replicate 2": 3.24e6, "Call": "inactive"}
{"gene": "CG7943", "reagent no.": 1, "firefly reporter light, replicate 1": 1.21e5, "firefly reporter light, replicate 2": 77703, "Renilla control light, replicate 1": 8.17e5, "Renilla control light, replicate 2": 5.94e5, "Call": "inactive"}
{"gene": "CG1999", "reagent no.": 1, "firefly reporter light, replicate 1": 90401, "firefly reporter light, replicate 2": 55454, "Renilla control light, replicate 1": 3.95e5, "Renilla control light, replicate 2": 3.78e5, "Call": "inactive"}
{"gene": "CG1999", "reagent no.": 2, "firefly reporter light, replicate 1": 7.69e5, "firefly reporter light, replicate 2": 6.38e5, "Renilla control light, replicate 1": 1.00e6, "Renilla control light, replicate 2": 8.88e5, "Call": "inactive"}
{"gene": "ytr (yantar)", "reagent no.": 1, "firefly reporter light, replicate 1": 9.05e5, "firefly reporter light, replicate 2": 6.74e5, "Renilla control light, replicate 1": 1.51e6, "Renilla control light, replicate 2": 1.23e6, "Call": "inactive"}
{"gene": "ytr (yantar)", "reagent no.": 2, "firefly reporter light, replicate 1": 8.56e5, "firefly reporter light, replicate 2": 8.95e5, "Renilla control light, replicate 1": 1.18e6, "Renilla control light, replicate 2": 9.84e5, "Call": "inactive"}
{"gene": "ytr (yantar)", "reagent no.": 3, "firefly reporter light, replicate 1": 3.24e5, "firefly reporter light, replicate 2": 3.21e5, "Renilla control light, replicate 1": 9.94e5, "Renilla control light, replicate 2": 8.02e5, "Call": "inactive"}
{"gene": "AANATL3 (Arylalkylamine N-acetyltransferase-like 3)", "reagent no.": 1, "firefly reporter light, replicate 1": 1.39e5, "firefly reporter light, replicate 2": 1.90e5, "Renilla control light, replicate 1": 1.20e6, "Renilla control light, replicate 2": 1.26e6, "Call": "inactive"}
{"gene": "CG6067", "reagent no.": 1, "firefly reporter light, replicate 1": 91308, "firefly reporter light, replicate 2": 1.98e5, "Renilla control light, replicate 1": 1.58e6, "Renilla control light, replicate 2": 1.50e6, "Call": "inactive"}
{"gene": "ScsbetaA (Succinyl-coenzyme A synthetase beta subunit, ADP-forming)", "reagent no.": 1, "firefly reporter light, replicate 1": 53751, "firefly reporter light, replicate 2": 40955, "Renilla control light, replicate 1": 2.49e5, "Renilla control light, replicate 2": 4.08e5, "Call": "inactive"}
{"gene": "ScsbetaA (Succinyl-coenzyme A synthetase beta subunit, ADP-forming)", "reagent no.": 2, "firefly reporter light, replicate 1": 2.00e5, "firefly reporter light, replicate 2": 2.04e5, "Renilla control light, replicate 1": 5.32e5, "Renilla control light, replicate 2": 7.70e5, "Call": "inactive"}

3 entries from above, reformatted.
{"gene":"Chrac-16 (Chromatin accessibility complex 16kD protein)","reagent no.":1,"firefly reporter light, replicate 1":2.32e5,"firefly reporter light, replicate 2":2.19e5,"Renilla control light, replicate 1":1.74e6,"Renilla control light, replicate 2":2.06e6,"Call":"inactive"}
{"gene":"Chrac-16 (Chromatin accessibility complex 16kD protein)","reagent no.":2,"firefly reporter light, replicate 1":1.09e6,"firefly reporter light, replicate 2":4.84e5,"Renilla control light, replicate 1":6.64e5,"Renilla control light, replicate 2":4.73e5,"Call":"inactive"}
{"gene":"lncRNA:mimi (mimi)","reagent no.":1,"firefly reporter light, replicate 1":8.24e5,"firefly reporter light, replicate 2":8.68e5,"Renilla control light, replicate 1":1.95e6,"Renilla control light, replicate 2":1.83e6,"Call":"inactive"}
